# From PubChem BioAssay AID504467 (National Center for Advancing Translational Sciences (NCATS), 2011)
# Among all 330,000 compounds or so, about 7,700 (2.3%) were called active. The shares of active, inactive and inconclusive entries below differ from those in the screen. Calls come from the whole dose curve; as a rule, active = well fitted inhibition curve with a large enough effect; inconclusive = small, poorly fitted or top-dose-only effect, or effect the other way; inactive = flat fitted curve, though single readings scatter. A potency beside an inconclusive call is a rough fit, not a confirmed value.
# Assay: qHTS screen for small molecules that inhibit ELG1-dependent DNA repair in human embryonic kidney (HEK293T) cells expressing luciferase-tagged ELG1; note: nearly all actives have a fitted effect of over 55% in size
# Details: HEK293T ELG1-luciferase reporter, luminescence, 16 h, DNA damage induced by 5-fluorouridine; activity change, negative = inhibition: at 46.1 µM (top of the series)
# Summary of the method: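 Cells (2,000 per well) received 5-fluorouridine plus test compound or DMSO and were incubated 16 hr at 37 °C, 5% CO2. Luciferase activity was read by luminescence 30 min after ONE-Glo addition; signal suppression marked inhibition of damage-induced ELG1 function.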
# % is set by controls: 0 for no effect and ±100 for the full control effect; potency is the fitted concentration of half-maximal effect.
Compound,Potency,"activity change, negative = inhibition"
COc1cccc(NC(=O)Cn2cnc3sc(C)c(S(=O)(=O)N4CCCCC4)c3c2=O)c1,"inconclusive: 16.4 µM [inhibitor, single point]",
CCCCCC(=O)Nc1nc2ccccc2[nH]1,"inconclusive: 9.2 µM [activator, partial curve]",
Cc1ccc2c(C)c(C(=O)N3CCCC(C(N)=O)C3)oc2c1C (stereo not drawn),"inconclusive: 16.4 µM [activator, single point]",
O=C(COc1ccc(-n2cnnn2)cc1)N1CCN(c2ccc(F)cc2)CC1,,inconclusive: 62% [activator]
Cc1c(C(=O)N2CCN(C(=O)c3ccccc3)CC2)oc2ccc(F)cc12,active: 18.3 µM,
CCOc1ccc(-n2ccnc2SCC(=O)NCc2ccc3c(c2)OCO3)cc1,,inactive: -9.52%
N#Cc1nc(-c2ccc(OCc3ccccc3)cc2)oc1NCc1cccnc1,"inconclusive: 29.1 µM [inhibitor, single point]",
COc1ccc(C(=O)N/C(=C\c2ccco2)C(=O)NCc2ccco2)cc1,,inactive: -10.1%
NC(=O)NC(=O)CN1c2cccc3cccc(c23)S1(=O)=O,,inactive: 17.6%
O=C(CN1CCN(S(=O)(=O)c2ccccc2F)CC1)N1CCc2ccccc2C1,,inactive: -0.913%
CC(CC(=O)Nc1nc2ccccc2[nH]1)c1ccccc1 (stereo not drawn),"inconclusive: 3.66 µM [activator, full curve]",
Cc1ccccc1N1CCN(C(=O)c2cc(C3CC3)nn2-c2ccccc2)CC1,"inconclusive: 18.3 µM [inhibitor, single point]",
O=C(Nc1ccc(Cl)cc1)c1ccc2ncsc2c1,"inconclusive: 20.6 µM [activator, partial curve]",
CSc1nccc(-c2sc(SC)c(C#N)c2-c2ccccc2)n1,,inactive: 4.5%
N/C(=N\OC(=O)c1cc([N+](=O)[O-])ccc1Cl)c1cccnc1,,inactive: 28.7%
COc1ccc(C(C(=O)NC2CCCCC2)N(C(=O)CCl)c2ccc(Cl)cc2)cc1 (stereo not drawn),"inconclusive: 6.51 µM [inhibitor, single point]",
c1ccc2c(c1)[nH]c1c(N3CCCC3)ncnc12,"inconclusive: 16.4 µM [inhibitor, partial curve]",
Cc1ccc(NS(=O)(=O)c2ccccc2)c2c1CC(C)(C)O2,,inactive: 2.74%
CC(C)c1ccc(S(=O)(=O)N2CCN(CC(=O)Nc3ccc4c(c3)OCO4)CC2)cc1,"inconclusive: 18.4 µM [inhibitor, single point]",
Nc1nnc(-c2cccc([N+](=O)[O-])c2)s1,,inactive: 4.1%
CCCC(c1nnnn1Cc1ccc(OC)cc1)N1CCN(c2ccccc2)CC1 (stereo not drawn),,inactive: -7.9%
N#Cc1cc(-c2ccccc2)[nH]c1-c1nccc2ccccc12,active: 9.2 µM,
O=C(NCCC(=O)N1CCN(c2ccc(F)cc2)CC1)c1ccco1,,inactive: 16.7%
COc1cc(C(=O)N2CCN(S(=O)(=O)c3ccc(C)cc3)CC2)ccc1OCc1c(C)noc1C,"inconclusive: 11.2 µM [inhibitor, partial curve]",
O/N=C(\c1ccccc1)C(O)c1ccccc1 (stereo not drawn),,inactive: 1.23%

# Single records, from the list above.
# Cc1ccc2c(C)c(C(=O)N3CCCC(C(N)=O)C3)oc2c1C (stereo not drawn) is listed with Potency: inconclusive: 16.4 µM [activator, single point]
# Cc1ccc(NS(=O)(=O)c2ccccc2)c2c1CC(C)(C)O2 is listed with activity change, negative = inhibition: inactive: 2.74%

# (next part)

Compound,Potency,"activity change, negative = inhibition"
COC(=O)c1cc(-c2ccccc2)c2c(=O)n(C)c(=O)n(C)c2n1,,inactive: 2.17%
COCCn1c(SCC(=O)Nc2cccnc2Cl)nc2ccccc2c1=O,,inactive: 10.8%
Cc1noc(C)c1-c1ccc2ncnc(NC(C)c3ccco3)c2c1 (stereo not drawn),"inconclusive: 5.8 µM [activator, full curve]",
Cc1nn(CC(=O)NNC(=O)c2cccc(Br)c2)c(C)c1[N+](=O)[O-],,inactive: 4.2%
COCCOC(=O)c1c(C)oc2ccc(NS(=O)(=O)c3ccc(C)cc3)cc12,,inactive: -23.9%
C=CCOc1ccc(CNc2nccs2)cc1OCC,,inactive: -2.48%
O=C(Nc1ccccc1)OCCOc1ccc(Br)cc1,,inactive: -0.585%
Cc1ccc(-c2csc3ncnc(N4CCN(C)CC4)c23)cc1C,"inconclusive: 11.6 µM [inhibitor, partial curve]",
Cc1nn2c(NCCCN3CCOCC3)c3c(nc2c1-c1ccccc1)CCC3,"inconclusive: 9.2 µM [inhibitor, partial curve]",
CC(C)N(C(=O)c1ccc(-c2ccccc2F)cc1)C(C)C,"inconclusive: 32.6 µM [inhibitor, single point]",
N#CC1=C(N)NC(SCc2ccc(Cl)cc2)=C(C#N)C12CCCCC2,,inactive: -5.51%
NC(=S)N/N=C/c1ccc2c(c1)OCCO2,"inconclusive: 20.6 µM [activator, partial curve]",
Nc1ccccc1C(=O)Nc1ccc(Cl)cc1Cl,"inconclusive: 16.4 µM [activator, partial curve]",
Cc1ccc(OCC(=O)NCCCNC(=O)COc2ccc(C)cc2)cc1,"inconclusive: 29.1 µM [inhibitor, single point]",
COCCn1c(=O)[nH]c2cc(C(=O)NCCN3CCN(c4ccc(OC)cc4)CC3)ccc2c1=O,active: 9.2 µM,
Cc1ccccc1-c1cc(C(=O)NCc2ccco2)nn1CC1CC(c2cccc([N+](=O)[O-])c2)=NO1 (stereo not drawn),"inconclusive: 23.1 µM [inhibitor, partial curve, poor fit]",
O=C(Nc1ccc(SC(F)F)cc1)C1=CC=CN2CCS(=O)(=O)N=C12,"inconclusive: 4.47 µM [activator, partial curve]",
O=C(Nc1nc2cc3c(cc2s1)OCO3)c1ccco1,"inconclusive: 0.291 µM [activator, partial curve]",
CC(C(=O)Nc1ccc(C(F)(F)F)cc1)N(C)CC(=O)N1CCN(Cc2ccccc2)CC1 (stereo not drawn),"inconclusive: 16.4 µM [inhibitor, single point]",
O=[N+]([O-])c1ccc(-c2cn(-c3ccccc3)c(=S)[nH]2)cc1,"inconclusive: 2.59 µM [activator, full curve, poor fit]",
COc1ccc(OC)c(NC(=O)CCNS(=O)(=O)c2cccc3nonc23)c1,,inactive: -8.06%
OC(CN1CCN(c2ccc(C(F)(F)F)cn2)CC1)c1ccccc1 (stereo not drawn),"inconclusive: 29.1 µM [inhibitor, single point]",
Cc1cc(C)c(S(=O)(=O)Nc2ccc(O)cc2)c(C)c1,"inconclusive: 20.6 µM [inhibitor, single point]",
O=S(=O)(c1ccccc1)c1cccc(S(=O)(=O)N2CCCCC2)c1,"inconclusive: 7.31 µM [inhibitor, partial curve]",
Cn1cc(CNCc2ccc(OC(F)(F)F)cc2)c(-c2ccc3c(c2)OCCO3)n1,,inactive: 10.3%

Compound,Potency,"activity change, negative = inhibition"
COc1ccc(-c2nc(NC(=O)C3CC(=O)N(c4ccc5c(c4)OCCO5)C3)sc2C)cc1 (stereo not drawn),,inactive: -6.73%
Cc1nc(N2CCN(C(=O)c3ccco3)CC2)c2c3c(sc2n1)CCC3,active: 23.1 µM,
CCCN(CC1CC1)C(=O)COc1ccccc1C(=O)NCc1ccccc1,"inconclusive: 23.1 µM [inhibitor, single point]",
O=C(O)CSc1cc(NS(=O)(=O)c2cccc([N+](=O)[O-])c2)c2ccccc2c1O,active: 23.1 µM,
COc1ccc(/C=C2\SC(=S)N(CCCC(=O)Nc3cccc(C(=O)O)c3)C2=O)cc1OC,"inconclusive: 25.9 µM [inhibitor, single point]",
COc1ccccc1NS(=O)(=O)c1ccc2oc(SCc3ccc(C#N)cc3)nc2c1,"inconclusive: 9.2 µM [inhibitor, partial curve]",
O=C(Nc1ccccc1)N1CCN(c2ccc(C(F)(F)F)cn2)CC1,active: 20.6 µM,
N=c1c(C(=O)NC2CCCCC2)cc2c(=O)n3ccccc3nc2n1CCc1ccccc1,"inconclusive: 6.51 µM [inhibitor, partial curve, poor fit]",
Cc1nnc(SCC(=O)N(C)CC(=O)Nc2ccc(F)cc2)n1Cc1ccccc1,,inactive: 0.475%
C=CCn1c(C)csc1=Nc1ccc(C(C)=O)cc1,"inconclusive: 13 µM [activator, partial curve]",
Cc1ccc2c(c1)/C(=C/c1ccc(F)cc1)C(=O)N2,,inactive: -10.3%
O=C(NC1CCCCCCC1)c1ccc2c(c1)OCO2,"inconclusive: 4.61 µM [activator, partial curve]",
COc1cc(CNC(C)(C)C)cc(Br)c1OCc1cccs1,,inactive: -17.3%
COc1ccc(/C=C/C(=O)Nc2cc(C)nn2-c2nc3ccccc3n2Cc2cccc([N+](=O)[O-])c2)cc1,"inconclusive: 23.1 µM [activator, partial curve, poor fit]",
CN(C(=S)Nc1ccc(F)cc1)C1(c2ccccc2Cl)CCCCC1=O (stereo not drawn),,inactive: -0.254%
COc1cc(NC(=S)NC(=O)c2ccco2)ccc1NC(=O)C(C)C,"inconclusive: 20.6 µM [activator, single point]",
CCc1nc2ccc(C(=O)NCCCN3CCN(c4ccc(F)cc4)CC3)cc2nc1CC,"inconclusive: 23.1 µM [inhibitor, single point]",
CCOC(=O)NCCc1c(C)nc2c(c(C)nn2C(C)(C)C)c1C,"inconclusive: 16.4 µM [inhibitor, partial curve, poor fit]",
CCN(CC)c1ccc(CNc2nc3ccccc3n2CCN2CCOCC2)cc1,"inconclusive: 29.1 µM [inhibitor, single point]",
C(=N\Nc1nc2ccccc2[nH]1)/c1ccc2c(c1)OCO2,"inconclusive: 2.59 µM [activator, full curve]",
Cc1ccc(-c2ccnc3nc(Sc4ncc(C(F)(F)F)cc4Cl)nn23)cc1,"inconclusive: 6.51 µM [activator, partial curve, poor fit]",
COc1ccc(C(=O)/C=C/Nc2cc(C)ccn2)cc1,"inconclusive: 1.83 µM [activator, partial curve]",
CCO[C@@H]1OC(C(=O)NCc2nc3ccccc3[nH]2)=C[C@H](C)[C@H]1CCCO,"inconclusive: 18.3 µM [activator, partial curve, poor fit]",
